According to PubChem BioAssay AID2417 (National Center for Advancing Translational Sciences (NCATS), 2010):
In all, about 140,000 compounds went through this assay and about 4,300 (3.1%) were called active. Inconclusive results, whose numbers are uncertain, are shown with a selection of clear calls.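 Rule for the calls: active = readout at or below -70, meaning at least 70% loss of cells showing the perinucleolar compartment, a nuclear body marking cancer cells; inconclusive = readout between -30 and a set limit; inactive = the rest.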

Assay: High Content Assay for Compounds that inhibit the Assembly of the Perinucleolar Compartment;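 note: plate controls were DMSO wells for no effect and camptothecin positive control wells for full effect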
Details: PC3M PTB-GFP, PNC prevalence imaging, 16 h; at 10 µM; active compounds read low
Outline: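 Read-out is percentage of cells bearing a perinucleolar compartment, from automated 20x imaging of fixed, Hoechst-stained PC3M PTB-GFP cells. Cells were seeded 4 h, then exposed 16 h to compound (23 nl of library stock) in duplicate plates.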
In the case of `CCOC(=O)c1cccc(S(=O)(=O)N(CCO)Cc2cc3cc(OC)ccc3[nH]c2=O)c1`, the activity change (PNC), negative = inhibition is reported as inconclusive: -42.3%.
In the case of `CCOc1ccc(OCC)c(NC(=O)CSc2nc3c(c(=O)n(C)c(=O)n3C)n2C)c1`, the activity change (PNC), negative = inhibition is reported as inactive: 56.7%.
With `CN(C)S(=O)(=O)c1ccc(Cl)c(NC(=O)COC(=O)CN2C(=O)NC(C)(C)C2=O)c1` the activity change (PNC), negative = inhibition was inconclusive: -56.8%.
With `Cc1cc(C(=O)CSc2nc(N)cc(N)n2)c(C)n1-c1cccc(F)c1` the activity change (PNC), negative = inhibition was inconclusive: -37.8%.
With `O=C(c1cc(-c2ccc(Cl)c(Cl)c2)on1)N1CCCC1` the activity change (PNC), negative = inhibition was inactive: 10.1%.
For `Cc1ccc(C[n+]2cccc(-c3ccccc3)c2)c(C)c1`, the activity change (PNC), negative = inhibition was inactive: 37.1%.
With `COCCNC(=O)C1CCCN(c2ncccn2)C1` (centres undefined) the activity change (PNC), negative = inhibition was inconclusive: -36.1%.
In the case of `CCOC(=O)CN(C(=O)CSc1nnc2c(n1)[nH]c1ccccc12)c1ccccc1`, the activity change (PNC), negative = inhibition is reported as inconclusive: -36.5%.
For `COC(=O)c1ccccc1NC(=O)C1CCCN(S(=O)(=O)c2ccccc2)C1` (centres undefined), the activity change (PNC), negative = inhibition was inconclusive: -46.4%.
With `COCCc1ccc(OCC(O)CNC(C)C)cc1` (centres undefined) the activity change (PNC), negative = inhibition was active: -90.6%.
With `CCOC(=O)C(CC)Sc1nc2c(c(=O)[nH]c(=O)n2C)n1C/C=C(/C)Cl` (centres undefined) the activity change (PNC), negative = inhibition was inactive: 22.9%.
With `COc1ccc2c(c1[N+](=O)[O-])CCC/C2=N/OC(=O)c1cccc2ccccc12` the activity change (PNC), negative = inhibition was inactive: -24.5%.
With `CC(=O)c1ccc(NS(=O)(=O)c2cccc(C)c2)cc1` the activity change (PNC), negative = inhibition was inconclusive: -71.1%.
With `C[N+]1(CCN2C(=O)C3CC=C(Cl)CC3C2=O)CCOCC1` (centres undefined) the activity change (PNC), negative = inhibition was inconclusive: -44%.
For `Cc1c(C(=O)NCc2cccnc2)oc2ccc(S(=O)(=O)N3CCCC(C)C3)cc12` (centres undefined), the activity change (PNC), negative = inhibition was inconclusive: -47%.
With `COC(=O)C1=C(Cn2cnc3ccccc32)NC(=O)NC1c1cc(C)ccc1C` (centres undefined) the activity change (PNC), negative = inhibition was active: -103%.
In the case of `c1csc(C(c2nnnn2C2CCCCC2)N2CCN(c3nc4ccccc4s3)CC2)c1` (centres undefined), the activity change (PNC), negative = inhibition is reported as inconclusive: -67%.
With `CC(C)Cn1cnc2c(c1=O)c1nc3ccccc3nc1n2Cc1ccc2c(c1)OCO2` the activity change (PNC), negative = inhibition was inconclusive: -46.4%.
In the case of `CSc1ccccc1NC(=O)CN(C)Cc1ccc(Br)cc1`, the activity change (PNC), negative = inhibition is reported as inconclusive: -48.7%.
For `O=c1[nH]c2ccc(Br)cc2c(-c2ccccc2)c1N1CCOCC1`, the activity change (PNC), negative = inhibition was inactive: 1.21%.
For `CCN(CCO)C1CC(=O)N(c2ccccc2C)C1=O` (centres undefined), the activity change (PNC), negative = inhibition was inconclusive: -37.1%.
For `COc1ccc(Nc2nc3ccccc3n3cnnc23)cc1`, the activity change (PNC), negative = inhibition was inconclusive: -56.4%.
With `Cc1nc2ccccc2nc1OCC(=O)N1CCN(c2ccccc2)CC1` the activity change (PNC), negative = inhibition was inconclusive: -31.4%.
For `O=C(C(Cc1ccccc1)n1cccc1)N1CCN(C2CCCCC2)CC1` (centres undefined), the activity change (PNC), negative = inhibition was inconclusive: -30.9%.
With `CN1CCN(C(c2ccc(F)cc2)c2nnnn2Cc2cccs2)CC1` (centres undefined) the activity change (PNC), negative = inhibition was inconclusive: -63.2%.
For `Cc1cc(Cl)cc(C)c1OCC(=O)O`, the activity change (PNC), negative = inhibition was inconclusive: -47.6%.
With `CCC(=O)N1CCN=C1SCc1ccc(Cl)cc1` the activity change (PNC), negative = inhibition was inconclusive: -56.1%.
With `Cc1ccc2ccc(S(=O)(=O)n3nc(C)cc3C)cc2c1` the activity change (PNC), negative = inhibition was inactive: 2.01%.
In the case of `Cc1cccc(/C=N/NC(=O)CNc2cccc3ccccc23)n1`, the activity change (PNC), negative = inhibition is reported as inconclusive: -57.7%.
For `CCn1c2ccccc2c2cc(NC(=O)COC(=O)c3cccc(S(=O)(=O)NC)c3)ccc21`, the activity change (PNC), negative = inhibition was inconclusive: -34.5%.
With `COc1c(F)c(F)c(C(=O)Nc2ccc(N3CCN(C(C)=O)CC3)c(Cl)c2)c(F)c1F` the activity change (PNC), negative = inhibition was inconclusive: -50.4%.
With `O=C(O)C1CC(=O)N(C2CCCCC2)C1c1ccccc1` (centres undefined) the activity change (PNC), negative = inhibition was inconclusive: -76%.
With `Cc1ccccc1-c1nnc(SCCOc2ccc3c(C)cc(=O)oc3c2)o1` the activity change (PNC), negative = inhibition was inconclusive: -41.8%.
In the case of `CCN1CCCc2cc(CN(CCN3CCOCC3)C(=O)Nc3ccc(C)c(C)c3)ccc21`, the activity change (PNC), negative = inhibition is reported as inconclusive: -45.3%.
With `O=[N+]([O-])c1ccc2c(c1Nc1ccccc1)=NC1(CCCCC1)N=2` the activity change (PNC), negative = inhibition was active: -109%.
In the case of `CSCc1ccc(C(=O)Nc2cccc(C)c2C)cc1`, the activity change (PNC), negative = inhibition is reported as inconclusive: -63.7%.
For `CCOC(=O)c1c(NS(=O)(=O)c2cccc(OC)c2)sc2c1CCC2`, the activity change (PNC), negative = inhibition was inconclusive: -36.3%.
For `COc1cc(C)ccc1OCCCCN1CC(C)OC(C)C1` (centres undefined), the activity change (PNC), negative = inhibition was inactive: 34.9%.
In the case of `CCOC(=O)c1sc2nc(C)cc(C)c2c1N`, the activity change (PNC), negative = inhibition is reported as inconclusive: -41.6%.
With `COc1ccc(-c2cc(C(=O)Nc3ccccc3SC)no2)cc1OC` the activity change (PNC), negative = inhibition was inconclusive: -61.4%.
With `CC(=O)N1N=C(c2ccco2)CC1c1cccs1` (centres undefined) the activity change (PNC), negative = inhibition was inactive: -2.75%.
In the case of `CC(C)Oc1ccc(C(=O)OC(C)C(=O)Nc2nc(-c3cccc([N+](=O)[O-])c3)cs2)cc1` (centres undefined), the activity change (PNC), negative = inhibition is reported as inactive: 7.56%.
In the case of `CC(Sc1nc(N)cc(=O)[nH]1)C(=O)NC1CCCCC1` (centres undefined), the activity change (PNC), negative = inhibition is reported as inconclusive: -41.4%.
With `CC(C)OCC(O)CSc1ccccn1` (centres undefined) the activity change (PNC), negative = inhibition was inactive: 29.5%.
In the case of `O=C(NCCO)c1ccc2nc(-c3ccco3)c(-c3ccco3)nc2c1`, the activity change (PNC), negative = inhibition is reported as inactive: 45.9%.
With `O=C(COC(=O)C(O)c1ccccc1)NC12CC3CC(CC(C3)C1)C2` (centres undefined) the activity change (PNC), negative = inhibition was inactive: 11.4%.
For `Cc1sc2ncnc(NCC(c3ccco3)N3CCCC3)c2c1C` (centres undefined), the activity change (PNC), negative = inhibition was inactive: -11.1%.
With `O=C(CSc1c[nH]c2ccccc12)NCC1CCCO1` (centres undefined) the activity change (PNC), negative = inhibition was inconclusive: -60%.
For `COc1ccc2oc(/C=C/N(C)C)c(C(=O)c3ccc(Cl)cc3)c2c1`, the activity change (PNC), negative = inhibition was inconclusive: -33.4%.
With `Cc1ccc(NC(=O)CNC(c2ccccc2)c2ccccc2)c(F)c1` the activity change (PNC), negative = inhibition was inconclusive: -31.1%.
With `O=C(NCc1ccco1)c1ccc(NC(=O)C2COc3ccccc3O2)cc1` (centres undefined) the activity change (PNC), negative = inhibition was inconclusive: -61%.
With `Cn1c(O)c(N=Nc2nc(-c3ccccc3)cs2)c2ccccc21` the activity change (PNC), negative = inhibition was inactive: -22%.
With `Cc1ccc2cc(CCNC(=O)c3ccco3)c(=O)[nH]c2c1` the activity change (PNC), negative = inhibition was inactive: 23.8%.
For `CCOCCCNC(=O)Cc1ccc(Br)cc1`, the activity change (PNC), negative = inhibition was inconclusive: -72%.
In the case of `COc1ccc(Nc2oc(COc3ccc(Cl)cc3)nc2C#N)cc1`, the activity change (PNC), negative = inhibition is reported as inactive: 0.461%.
For `CCCOc1ccc(CC2CCC(=O)NC2=O)cc1` (centres undefined), the activity change (PNC), negative = inhibition was inconclusive: -36.9%.
In the case of `CCCCNC(=O)c1ccc(CNc2c(N3CCC(C(=O)OCC)CC3)c(=O)c2=O)cc1`, the activity change (PNC), negative = inhibition is reported as inconclusive: -70.7%.
For `CCN=c1scc(-c2ccco2)n1/N=C/c1ccc(O)cc1`, the activity change (PNC), negative = inhibition was inconclusive: -31.1%.
With `COc1ccc(CCNC(=O)CCn2c(=O)oc3ccccc32)cc1` the activity change (PNC), negative = inhibition was inconclusive: -39.1%.
